Assays:
Assay in all cases: split-luciferase competition binding
[1] = target: PRKACB (human) (UniProt P22694); settings: compound 10.0 µM
[2] = target: PKN1 (human) (UniProt Q16512); settings: compound 10.0 µM
[3] = target: SGK3 (human) (UniProt Q96BR1); settings: compound 10.0 µM
[4] = target: SGK2 (human) (UniProt Q9HBY8); settings: compound 10.0 µM
[5] = target: PRKCG (human) (UniProt P05129); settings: compound 10.0 µM
[6] = test system: PRKACA (mouse); settings: compound 10.0 µM; accession and sequence are those of the human protein
[7] = target: STK32B (human) (UniProt Q9NY57); settings: compound 10.0 µM
[8] = target: PDPK1 (human) (UniProt O15530); settings: compound 10.0 µM
[9] = target: PRKX (human) (UniProt P51817); settings: compound 10.0 µM
[10] = target: RPS6KA5 KD1 (human) (UniProt O75582); settings: compound 10.0 µM
[11] = target: RPS6KA1 KD1 (human) (UniProt Q15418); settings: compound 10.0 µM
[12] = target: PRKCD (human) (UniProt Q05655); settings: compound 10.0 µM
[13] = target: PRKCI (human) (UniProt P41743); settings: compound 10.0 µM
[14] = target: AURKC (human) (UniProt Q9UQB9); settings: compound 10.0 µM
[15] = target: AKT2 (human) (UniProt P31751); settings: compound 10.0 µM
[16] = target: RPS6KA3 KD1 (human) (UniProt P51812); settings: compound 10.0 µM
[17] = target: RPS6KA6 KD1 (human) (UniProt Q9UK32); settings: compound 10.0 µM
[18] = target: PRKCQ (human) (UniProt Q04759); settings: compound 10.0 µM
[19] = target: PRKCH (human) (UniProt P24723); settings: compound 10.0 µM
[20] = target: PRKCE (human) (UniProt Q02156); settings: compound 10.0 µM
[21] = target: AURKA (human) (UniProt O14965); settings: compound 10.0 µM
[22] = target: RPS6KA4 KD1 (human) (UniProt O75676); settings: compound 10.0 µM
[23] = target: AKT1 (human) (UniProt P31749); settings: compound 10.0 µM
[24] = target: RPS6KA2 KD1 (human) (UniProt Q15349); settings: compound 10.0 µM
[25] = target: AKT3 (human) (UniProt Q9Y243); settings: compound 10.0 µM
[26] = target: DMPK (human) (UniProt Q09013); settings: compound 10.0 µM
[27] = target: AURKB (human) (UniProt Q96GD4); settings: compound 10.0 µM

Chains of the proteins cited; added tags and fusions are not shown. Lines headed by an entry give the natural chain unless they say otherwise; changes in a name come on top.
UniProt Q9NY57, whole entry, looked up: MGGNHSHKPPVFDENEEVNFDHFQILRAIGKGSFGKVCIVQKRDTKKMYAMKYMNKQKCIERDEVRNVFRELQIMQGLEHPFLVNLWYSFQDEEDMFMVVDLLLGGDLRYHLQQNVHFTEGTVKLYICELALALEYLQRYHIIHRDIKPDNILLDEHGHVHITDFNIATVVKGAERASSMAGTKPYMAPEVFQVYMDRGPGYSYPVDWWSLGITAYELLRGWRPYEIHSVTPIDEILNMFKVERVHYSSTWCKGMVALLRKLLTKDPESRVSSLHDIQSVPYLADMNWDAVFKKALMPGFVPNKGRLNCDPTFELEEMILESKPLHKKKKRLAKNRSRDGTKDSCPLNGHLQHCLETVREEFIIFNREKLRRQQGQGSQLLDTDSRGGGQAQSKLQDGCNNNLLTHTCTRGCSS
UniProt O15530: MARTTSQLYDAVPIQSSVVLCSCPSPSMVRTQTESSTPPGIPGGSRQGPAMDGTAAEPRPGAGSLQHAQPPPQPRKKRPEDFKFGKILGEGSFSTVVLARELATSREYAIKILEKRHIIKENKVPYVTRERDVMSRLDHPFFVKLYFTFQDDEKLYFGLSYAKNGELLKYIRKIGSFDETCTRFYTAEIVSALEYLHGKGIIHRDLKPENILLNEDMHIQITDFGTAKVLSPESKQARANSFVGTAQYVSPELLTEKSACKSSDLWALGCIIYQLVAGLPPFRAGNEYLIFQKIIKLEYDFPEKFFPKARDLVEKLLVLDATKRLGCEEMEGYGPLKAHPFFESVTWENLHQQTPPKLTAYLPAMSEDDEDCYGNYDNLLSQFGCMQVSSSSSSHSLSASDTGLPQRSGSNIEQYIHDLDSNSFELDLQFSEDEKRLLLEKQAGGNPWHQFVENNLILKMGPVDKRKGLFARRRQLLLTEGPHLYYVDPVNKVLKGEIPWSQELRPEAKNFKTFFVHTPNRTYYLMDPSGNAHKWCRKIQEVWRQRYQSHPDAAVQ
UniProt P51817: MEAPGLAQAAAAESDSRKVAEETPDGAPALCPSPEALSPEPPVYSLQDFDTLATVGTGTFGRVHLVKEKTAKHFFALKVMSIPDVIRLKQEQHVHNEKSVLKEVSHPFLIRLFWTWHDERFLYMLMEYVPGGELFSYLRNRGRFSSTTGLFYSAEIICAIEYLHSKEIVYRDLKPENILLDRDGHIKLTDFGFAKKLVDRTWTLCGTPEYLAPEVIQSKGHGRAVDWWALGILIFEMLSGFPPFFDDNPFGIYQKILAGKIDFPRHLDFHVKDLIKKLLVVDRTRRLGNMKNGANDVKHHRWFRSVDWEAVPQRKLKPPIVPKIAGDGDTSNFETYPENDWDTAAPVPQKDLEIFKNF
UniProt Q15418, whole entry, looked up: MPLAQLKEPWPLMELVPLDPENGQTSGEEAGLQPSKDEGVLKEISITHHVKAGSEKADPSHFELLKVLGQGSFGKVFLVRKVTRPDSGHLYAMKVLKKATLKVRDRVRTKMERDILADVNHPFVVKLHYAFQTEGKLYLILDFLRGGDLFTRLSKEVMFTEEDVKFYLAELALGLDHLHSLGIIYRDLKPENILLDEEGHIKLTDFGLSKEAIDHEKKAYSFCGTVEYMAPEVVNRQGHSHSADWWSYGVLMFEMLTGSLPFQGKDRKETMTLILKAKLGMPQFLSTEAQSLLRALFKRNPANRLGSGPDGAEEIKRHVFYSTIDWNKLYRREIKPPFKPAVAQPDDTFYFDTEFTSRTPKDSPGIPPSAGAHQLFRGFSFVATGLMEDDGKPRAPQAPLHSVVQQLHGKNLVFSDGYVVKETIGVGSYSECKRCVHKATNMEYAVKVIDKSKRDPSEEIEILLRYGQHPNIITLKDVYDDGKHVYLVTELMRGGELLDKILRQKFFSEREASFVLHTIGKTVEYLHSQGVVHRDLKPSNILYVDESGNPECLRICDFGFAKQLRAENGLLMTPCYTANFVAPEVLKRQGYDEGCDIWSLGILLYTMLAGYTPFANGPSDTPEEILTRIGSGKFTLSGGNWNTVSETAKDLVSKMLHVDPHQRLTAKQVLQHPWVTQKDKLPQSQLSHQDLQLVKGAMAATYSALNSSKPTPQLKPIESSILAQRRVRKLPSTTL
UniProt Q05655: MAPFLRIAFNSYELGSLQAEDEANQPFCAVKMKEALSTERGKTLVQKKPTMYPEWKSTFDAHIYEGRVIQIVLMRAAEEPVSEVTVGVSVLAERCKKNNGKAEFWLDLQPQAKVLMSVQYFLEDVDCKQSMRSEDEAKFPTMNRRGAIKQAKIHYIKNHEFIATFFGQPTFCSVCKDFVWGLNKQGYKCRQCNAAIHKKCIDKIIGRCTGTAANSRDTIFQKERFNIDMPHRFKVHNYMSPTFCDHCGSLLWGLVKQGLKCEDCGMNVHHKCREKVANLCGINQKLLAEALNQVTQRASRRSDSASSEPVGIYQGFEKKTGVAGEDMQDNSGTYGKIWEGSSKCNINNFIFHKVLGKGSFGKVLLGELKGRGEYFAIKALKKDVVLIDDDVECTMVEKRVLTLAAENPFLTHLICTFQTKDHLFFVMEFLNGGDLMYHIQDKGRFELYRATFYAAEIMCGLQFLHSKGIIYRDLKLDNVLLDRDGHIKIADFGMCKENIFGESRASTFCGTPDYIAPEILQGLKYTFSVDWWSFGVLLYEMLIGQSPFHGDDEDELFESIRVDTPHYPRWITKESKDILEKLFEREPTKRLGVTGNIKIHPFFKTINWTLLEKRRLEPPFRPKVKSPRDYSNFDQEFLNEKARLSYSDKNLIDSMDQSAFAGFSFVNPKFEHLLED
UniProt Q9UQB9: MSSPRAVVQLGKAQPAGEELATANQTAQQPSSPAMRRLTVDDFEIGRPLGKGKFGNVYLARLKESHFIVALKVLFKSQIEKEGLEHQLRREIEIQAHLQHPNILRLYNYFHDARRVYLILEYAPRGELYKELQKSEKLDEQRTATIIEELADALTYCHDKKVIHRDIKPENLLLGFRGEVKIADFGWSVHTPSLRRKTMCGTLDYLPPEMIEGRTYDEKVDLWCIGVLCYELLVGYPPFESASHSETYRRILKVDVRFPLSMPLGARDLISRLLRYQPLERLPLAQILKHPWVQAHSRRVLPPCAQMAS
UniProt Q02156: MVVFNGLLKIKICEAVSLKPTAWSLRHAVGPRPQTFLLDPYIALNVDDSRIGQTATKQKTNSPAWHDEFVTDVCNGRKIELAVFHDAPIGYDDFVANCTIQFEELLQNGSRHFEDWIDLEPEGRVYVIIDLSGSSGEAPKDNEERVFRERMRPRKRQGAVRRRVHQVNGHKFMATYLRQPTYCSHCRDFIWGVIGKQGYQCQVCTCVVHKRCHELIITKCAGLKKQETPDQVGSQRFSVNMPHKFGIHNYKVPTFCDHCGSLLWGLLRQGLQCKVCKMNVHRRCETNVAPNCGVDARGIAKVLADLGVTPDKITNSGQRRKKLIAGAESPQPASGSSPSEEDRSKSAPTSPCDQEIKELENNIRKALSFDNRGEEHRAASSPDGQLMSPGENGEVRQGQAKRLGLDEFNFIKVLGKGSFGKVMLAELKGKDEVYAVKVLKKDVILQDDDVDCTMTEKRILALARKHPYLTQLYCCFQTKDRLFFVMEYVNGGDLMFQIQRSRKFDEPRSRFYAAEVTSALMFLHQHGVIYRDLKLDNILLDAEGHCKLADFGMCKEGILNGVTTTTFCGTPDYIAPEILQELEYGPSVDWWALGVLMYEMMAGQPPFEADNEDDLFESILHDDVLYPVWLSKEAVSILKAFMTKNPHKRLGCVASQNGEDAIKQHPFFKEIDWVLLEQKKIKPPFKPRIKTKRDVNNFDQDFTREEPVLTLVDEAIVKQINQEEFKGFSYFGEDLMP
UniProt O14965: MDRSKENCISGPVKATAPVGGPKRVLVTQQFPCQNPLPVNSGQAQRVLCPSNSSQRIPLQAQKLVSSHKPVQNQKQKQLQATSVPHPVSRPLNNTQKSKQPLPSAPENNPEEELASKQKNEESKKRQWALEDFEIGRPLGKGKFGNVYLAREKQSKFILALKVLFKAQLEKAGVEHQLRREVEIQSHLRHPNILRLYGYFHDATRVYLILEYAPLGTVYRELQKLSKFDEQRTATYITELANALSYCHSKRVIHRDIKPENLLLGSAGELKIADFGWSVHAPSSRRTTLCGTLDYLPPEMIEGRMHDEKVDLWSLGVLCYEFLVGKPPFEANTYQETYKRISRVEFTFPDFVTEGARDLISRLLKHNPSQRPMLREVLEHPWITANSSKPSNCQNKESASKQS
UniProt O75676: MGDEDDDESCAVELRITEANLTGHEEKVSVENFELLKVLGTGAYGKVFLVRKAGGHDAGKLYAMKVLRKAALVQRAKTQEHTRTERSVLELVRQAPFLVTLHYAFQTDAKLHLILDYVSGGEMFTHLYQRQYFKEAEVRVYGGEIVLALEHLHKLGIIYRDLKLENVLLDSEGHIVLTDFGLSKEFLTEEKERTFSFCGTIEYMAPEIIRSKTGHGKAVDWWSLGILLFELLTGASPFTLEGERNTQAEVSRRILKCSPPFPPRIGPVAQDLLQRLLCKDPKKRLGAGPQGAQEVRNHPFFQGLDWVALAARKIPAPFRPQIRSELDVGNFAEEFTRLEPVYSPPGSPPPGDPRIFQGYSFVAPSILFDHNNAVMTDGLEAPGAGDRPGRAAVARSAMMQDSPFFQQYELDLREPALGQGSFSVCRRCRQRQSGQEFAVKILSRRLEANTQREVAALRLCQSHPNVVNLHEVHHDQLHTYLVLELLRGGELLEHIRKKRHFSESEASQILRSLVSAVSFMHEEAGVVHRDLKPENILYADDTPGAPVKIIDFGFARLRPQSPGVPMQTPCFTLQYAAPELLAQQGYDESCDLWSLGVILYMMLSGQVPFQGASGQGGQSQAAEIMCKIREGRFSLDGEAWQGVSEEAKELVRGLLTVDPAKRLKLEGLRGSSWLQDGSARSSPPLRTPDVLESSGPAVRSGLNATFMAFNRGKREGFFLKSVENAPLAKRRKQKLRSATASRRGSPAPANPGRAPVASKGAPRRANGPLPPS
UniProt P31749: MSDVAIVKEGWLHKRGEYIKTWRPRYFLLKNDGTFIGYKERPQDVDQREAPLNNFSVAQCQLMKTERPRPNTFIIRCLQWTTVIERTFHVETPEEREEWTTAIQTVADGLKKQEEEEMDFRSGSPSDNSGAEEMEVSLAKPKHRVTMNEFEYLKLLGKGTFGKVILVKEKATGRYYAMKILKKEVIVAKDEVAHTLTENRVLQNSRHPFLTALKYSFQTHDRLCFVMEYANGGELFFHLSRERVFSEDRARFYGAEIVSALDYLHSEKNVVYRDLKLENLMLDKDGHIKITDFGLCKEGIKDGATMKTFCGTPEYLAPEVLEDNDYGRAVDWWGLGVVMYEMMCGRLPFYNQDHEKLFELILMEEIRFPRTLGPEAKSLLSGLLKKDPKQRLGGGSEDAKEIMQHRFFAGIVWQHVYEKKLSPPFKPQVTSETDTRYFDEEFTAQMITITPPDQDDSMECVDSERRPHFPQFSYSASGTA
UniProt Q15349, whole entry, looked up: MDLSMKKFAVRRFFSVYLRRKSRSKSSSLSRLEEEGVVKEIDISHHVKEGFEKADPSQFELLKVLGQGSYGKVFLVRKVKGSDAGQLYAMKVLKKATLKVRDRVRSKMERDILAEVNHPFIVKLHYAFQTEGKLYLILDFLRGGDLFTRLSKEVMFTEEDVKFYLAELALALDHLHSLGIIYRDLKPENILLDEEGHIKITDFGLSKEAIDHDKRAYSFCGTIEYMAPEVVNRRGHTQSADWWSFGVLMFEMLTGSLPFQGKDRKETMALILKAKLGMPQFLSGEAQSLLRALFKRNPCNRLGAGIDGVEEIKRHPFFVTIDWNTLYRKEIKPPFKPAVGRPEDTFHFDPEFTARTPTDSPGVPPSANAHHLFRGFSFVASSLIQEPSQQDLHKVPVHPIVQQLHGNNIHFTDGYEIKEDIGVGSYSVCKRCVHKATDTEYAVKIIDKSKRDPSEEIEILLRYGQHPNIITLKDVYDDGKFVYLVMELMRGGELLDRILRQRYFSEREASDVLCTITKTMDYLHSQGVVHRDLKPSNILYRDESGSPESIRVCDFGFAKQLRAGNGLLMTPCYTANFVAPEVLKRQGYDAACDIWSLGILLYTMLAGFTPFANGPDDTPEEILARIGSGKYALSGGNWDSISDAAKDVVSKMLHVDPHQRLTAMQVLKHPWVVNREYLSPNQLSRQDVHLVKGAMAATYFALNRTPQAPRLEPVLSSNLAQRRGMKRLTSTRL
UniProt Q96GD4, whole entry, looked up: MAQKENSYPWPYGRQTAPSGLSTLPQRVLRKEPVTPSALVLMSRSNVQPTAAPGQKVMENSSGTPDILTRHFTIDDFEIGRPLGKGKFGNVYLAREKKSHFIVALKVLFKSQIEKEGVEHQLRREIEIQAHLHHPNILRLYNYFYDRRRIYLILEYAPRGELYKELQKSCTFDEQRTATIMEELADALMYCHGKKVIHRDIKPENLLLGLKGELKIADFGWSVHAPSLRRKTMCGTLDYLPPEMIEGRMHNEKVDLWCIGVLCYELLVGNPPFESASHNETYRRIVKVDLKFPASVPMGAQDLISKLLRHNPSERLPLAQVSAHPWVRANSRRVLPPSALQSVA

Compound `O=C1NC(=O)c2c1c(-c1ccccc1)cc1[nH]c3ccc(O)cc3c21` has an inhibition [1] of 3%, an inhibition [2] of 0% and an inhibition [3] of 37%. The inhibition [4] was 26%, the inhibition [5] was 0% and the inhibition [6] was 10%. For the same compound, the inhibition [7] was 0%, the inhibition [8] was 48% and the inhibition [9] was 22%. For the same compound, the inhibition [10] was 45%, the inhibition [11] was 49% and the inhibition [12] was 12%. For the same compound, the inhibition [13] was 0%, the inhibition [14] was 24% and the inhibition [15] was 0%. The inhibition [16] was 28%, the inhibition [17] was 27% and the inhibition [18] was 42%. For the same compound, the inhibition [19] was 44%, the inhibition [20] was 5% and the inhibition [21] was 0%. The inhibition [22] was 62%, the inhibition [23] was 0% and the inhibition [24] was 78%. For the same compound, the inhibition [25] was 0%, the inhibition [26] was 15% and the inhibition [27] was 34%.
